The supplement of paper PMC4635364
Structures can show the parent of a compound that is named as a salt. The list shows a part of the results. This data set is noisy: repeats of one test often differ as much as different tests do.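 Human fetal ventral-midbrain neural progenitor line ReNCell VM, differentiated without mitogens. Images stained for doublecortin (early neurons) or tyrosine hydroxylase (dopaminergic neurons) were scored by blinded raters against untreated wells (0 = no change). Repeats and both raters were averaged, and compounds averaging 2 or higher were picked as hits for retesting.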

Key:
ReNCell VM [1] = assay: neuronal differentiation score (DCX+ cell fraction vs untreated, manual image score) (score (-3 to 3)); higher = more neuronal differentiation; conditions: 2 uM, 2 weeks
ReNCell VM [2] = assay: dopaminergic neuron differentiation score (TH+ cell fraction vs untreated, manual image score) (score (0 to 3)); higher = more TH+ dopaminergic neuron differentiation; conditions: 2 uM, 4 weeks, BDNF 10 ng/ml + GDNF 10 ng/ml

C/C=C1/C[N+]2(C)CCC34C(=C(C=O)[C@H]1C[C@@H]32)Nc1ccccc14 (some centres undefined) [Fluorocurarine chloride]
neuronal differentiation score (ReNCell VM [1]; library: Phytochemical): inactive: 0 | dopaminergic neuron differentiation score (ReNCell VM [2]; library: Phytochemical): inactive: 0

C[N+]1(C)[C@@H]2CC(OC(=O)[C@H](CO)c3ccccc3)C[C@H]1[C@@H]1O[C@@H]12 (single isomer, unassigned; (-)) [(-)-Scopolamine methyl nitrate]
neuronal differentiation score (ReNCell VM [1]; library: LOPAC): inactive: 0 | dopaminergic neuron differentiation score (ReNCell VM [2]; library: LOPAC): inactive: 0

O=C([O-])c1ccccc1-c1c2cc(Br)c(=O)cc-2oc2[c]([Hg+])c([O-])c(Br)cc12.[Na+].[Na+].[OH-]
neuronal differentiation score (ReNCell VM [1]; library: Spectrum): inactive: 1 | dopaminergic neuron differentiation score (ReNCell VM [2]; library: Spectrum): inactive: 0

Nc1ncn[nH]1
neuronal differentiation score (ReNCell VM [1]; library: Spectrum): inactive: 0 | dopaminergic neuron differentiation score (ReNCell VM [2]; library: Spectrum): inactive: 0

Cc1cc(C(C#N)c2ccc(Cl)cc2)c(Cl)cc1NC(=O)c1cc(I)cc(I)c1O (centres undefined) [Closantel]
neuronal differentiation score (ReNCell VM [1]; library: Prestwick): inactive: 0 | dopaminergic neuron differentiation score (ReNCell VM [2]; library: Prestwick): inactive: 0

C[C@@]12N[C@@H](Cc3ccccc31)c1ccccc12 [(-)-MK 801 hydrogen maleate]
neuronal differentiation score (ReNCell VM [1]; library: Prestwick): inactive: 0 | dopaminergic neuron differentiation score (ReNCell VM [2]; library: Prestwick): inactive: 0

C=CCC1(CC(C)C)C(=O)NC(=O)NC1=O [Butalbital]
neuronal differentiation score (ReNCell VM [1]; library: Prestwick): inactive: 0 | dopaminergic neuron differentiation score (ReNCell VM [2]; library: Prestwick): inactive: 0

CN1C2CC(=O)CC1C(O)C2 (centres undefined)
neuronal differentiation score (ReNCell VM [1]; library: Spectrum): inactive: 0 | dopaminergic neuron differentiation score (ReNCell VM [2]; library: Spectrum): inactive: 0

CC(=O)OCC(=O)[C@H]1CC[C@H]2[C@@H]3CC[C@H]4C[C@H](O)CC[C@]4(C)[C@H]3C(=O)C[C@]12C [Alfadolone acetate]
neuronal differentiation score (ReNCell VM [1]; library: Prestwick): inactive: 0 | dopaminergic neuron differentiation score (ReNCell VM [2]; library: Prestwick): inactive: 0

COc1cc2c3cc1Oc1cc(ccc1O)C[C@@H]1c4c(cc(OC)c(O)c4Oc4cccc(c4)C[C@@H]3N(C)CC2)CC[N+]1(C)C [Tubocurarine chloride pentahydrate (+)]
neuronal differentiation score (ReNCell VM [1]; library: Phytochemical): inactive: 0 | dopaminergic neuron differentiation score (ReNCell VM [2]; library: Phytochemical): inactive: 0

O=C(O)CC[N+](=O)[O-]
neuronal differentiation score (ReNCell VM [1]; library: Spectrum): inactive: 0 | dopaminergic neuron differentiation score (ReNCell VM [2]; library: Spectrum): inactive: 0

O=C(O)Cc1cnc[nH]1 [Imidazole-4-acetic acid hydrochloride]
neuronal differentiation score (ReNCell VM [1]; library: LOPAC): inactive: 0 | dopaminergic neuron differentiation score (ReNCell VM [2]; library: LOPAC): inactive: 0

O=C(O)c1ccc2[nH]cc(CCCCN3CC=C(c4ccccc4)CC3)c2c1 [Carmoxirole hydrochloride]
neuronal differentiation score (ReNCell VM [1]; library: Tocriscreen): inactive: 0 | dopaminergic neuron differentiation score (ReNCell VM [2]; library: Tocriscreen): inactive: 0

C[C@]12N[C@H](Cc3ccccc31)c1ccccc12 [Dizocilpine maleate]
neuronal differentiation score (ReNCell VM [1]; library: Prestwick): inactive: 0 | dopaminergic neuron differentiation score (ReNCell VM [2]; library: Prestwick): inactive: 0

NCc1cc(O)no1 [Muscimol]
neuronal differentiation score (ReNCell VM [1]; library: Tocriscreen): inactive: 0 | dopaminergic neuron differentiation score (ReNCell VM [2]; library: Tocriscreen): inactive: 0

NP(N)(=O)NC(=O)c1ccc(F)cc1 [Flurofamide]
neuronal differentiation score (ReNCell VM [1]; library: Tocriscreen): inactive: 0 | dopaminergic neuron differentiation score (ReNCell VM [2]; library: Tocriscreen): inactive: 0

CN1C[C@@H](NS(=O)(=O)N(C)C)C[C@@H]2c3cccc4c3c(cn4C)C[C@H]21 [Mesulergine hydrochloride]
neuronal differentiation score (ReNCell VM [1]; library: LOPAC): inactive: 0 | dopaminergic neuron differentiation score (ReNCell VM [2]; library: LOPAC): inactive: 0

C=C1[C@@H]2CC[C@H]3[C@]4(C)C[C@H](O[C@@H]5O[C@H](CO)[C@@H](OS(=O)(=O)O)[C@H](OS(=O)(=O)O)[C@H]5OC(=O)CC(C)C)C[C@@H](C(=O)O)[C@H]4CC[C@]3(C2)[C@@H]1O [Atractyloside potassium salt]
neuronal differentiation score (ReNCell VM [1]; library: Prestwick): inactive: 0 | dopaminergic neuron differentiation score (ReNCell VM [2]; library: Prestwick): inactive: 0

Cc1ncc(CNC(=O)N(CCCl)N=O)c(N)n1
neuronal differentiation score (ReNCell VM [1]; library: Spectrum): inactive: 0 | dopaminergic neuron differentiation score (ReNCell VM [2]; library: Spectrum): inactive: 0

CCNC(=O)[C@H]1O[C@@H](n2cnc3c(N)ncnc32)[C@H](O)[C@@H]1O
neuronal differentiation score (ReNCell VM [1]; library: Tocriscreen): inactive: -3 | dopaminergic neuron differentiation score (ReNCell VM [2]; library: Tocriscreen): inactive: 0

O=[N+]([O-])O[C@H]1CO[C@H]2[C@@H]1OC[C@H]2O[N+](=O)[O-]
neuronal differentiation score (ReNCell VM [1]; library: Spectrum): inactive: 0 | dopaminergic neuron differentiation score (ReNCell VM [2]; library: Spectrum): inactive: 0

Cc1cccc(C)c1NC1=NCCCS1 [Xylazine hydrochloride]
neuronal differentiation score (ReNCell VM [1]; library: LOPAC): inactive: 0 | dopaminergic neuron differentiation score (ReNCell VM [2]; library: LOPAC): inactive: 0

CO[C@H]1CC=C2CCN3CCC4=C(CC(=O)OC4)[C@]23C1 [Dihydro-beta-erythroidine hydrobromide]
neuronal differentiation score (ReNCell VM [1]; library: LOPAC): inactive: 0 | dopaminergic neuron differentiation score (ReNCell VM [2]; library: LOPAC): inactive: 0

C[C@H](N)[C@H](O)c1ccc(O)c(O)c1 [Levonordefrin]
neuronal differentiation score (ReNCell VM [1]; library: Prestwick): inactive: 0 | dopaminergic neuron differentiation score (ReNCell VM [2]; library: Prestwick): inactive: 0

C[C@]12CCC(=O)C(O)=C1CC[C@@H]1[C@@H]2CC[C@]2(C)C(=O)CC[C@@H]12 [Formestane]
neuronal differentiation score (ReNCell VM [1]; library: Prestwick): inactive: 0 | dopaminergic neuron differentiation score (ReNCell VM [2]; library: Prestwick): inactive: 0

Oc1cc(Cl)ccc1Oc1ccc(Cl)cc1Cl [Triclosan]
neuronal differentiation score (ReNCell VM [1]; library: Prestwick): inactive: 0 | dopaminergic neuron differentiation score (ReNCell VM [2]; library: Prestwick): inactive: 0

CC(N)Cc1c[nH]c2ccc(OCc3cccs3)cc12 (centres undefined) [BW 723C86 hydrochloride]
neuronal differentiation score (ReNCell VM [1]; library: Tocriscreen): inactive: 0 | dopaminergic neuron differentiation score (ReNCell VM [2]; library: Tocriscreen): inactive: 0

CCC12C=CCN3CC[C@@]4(c5ccc(OC)cc5N(C)[C@H]4[C@@](O)(C(=O)OC)[C@@H]1OC(C)=O)[C@@H]32 (some centres undefined) [vindoline]
neuronal differentiation score (ReNCell VM [1]; library: Natural): inactive: 0 | dopaminergic neuron differentiation score (ReNCell VM [2]; library: Natural): inactive: 0

O=C(NCNC(=O)NC1C(=O)NC(=O)N1CO)NC1C(=O)NC(=O)N1CO (centres undefined) [Imidurea]
neuronal differentiation score (ReNCell VM [1]; library: Prestwick): inactive: 0 | dopaminergic neuron differentiation score (ReNCell VM [2]; library: Prestwick): inactive: 0

Cc1ccc(/N=C/N(C)/C=N/c2ccc(C)cc2C)c(C)c1
neuronal differentiation score (ReNCell VM [1]; library: Spectrum): inactive: 0 | dopaminergic neuron differentiation score (ReNCell VM [2]; library: Spectrum): inactive: 1

COC(=O)c1cc2c(cn1)[nH]c1ccccc12 [Methyl beta-carboline-3-carboxylate]
neuronal differentiation score (ReNCell VM [1]; library: LOPAC): inactive: 0 | dopaminergic neuron differentiation score (ReNCell VM [2]; library: LOPAC): inactive: 0

CC[C@@]1(O)C(=O)OCc2c1cc1n(c2=O)Cc2cc3ccccc3nc2-1
neuronal differentiation score (ReNCell VM [1]; library: Spectrum): inactive: 0 | dopaminergic neuron differentiation score (ReNCell VM [2]; library: Spectrum): inactive: 0
